Source: EP2570123A1, “Use of 2,4-dichlorobenzyl alcohol having an anaesthetic effect” (Reckitt Benckiser Healthcare (UK) Limited, priority 2007, dated 2009)
Where “and” joins values, the source holds several entries; their conditions need not be identical. Identical values can stand only once.

Protein sequences, listed by entry. Tags and fused reporters are not part of them.
UniProt P04775, whole entry: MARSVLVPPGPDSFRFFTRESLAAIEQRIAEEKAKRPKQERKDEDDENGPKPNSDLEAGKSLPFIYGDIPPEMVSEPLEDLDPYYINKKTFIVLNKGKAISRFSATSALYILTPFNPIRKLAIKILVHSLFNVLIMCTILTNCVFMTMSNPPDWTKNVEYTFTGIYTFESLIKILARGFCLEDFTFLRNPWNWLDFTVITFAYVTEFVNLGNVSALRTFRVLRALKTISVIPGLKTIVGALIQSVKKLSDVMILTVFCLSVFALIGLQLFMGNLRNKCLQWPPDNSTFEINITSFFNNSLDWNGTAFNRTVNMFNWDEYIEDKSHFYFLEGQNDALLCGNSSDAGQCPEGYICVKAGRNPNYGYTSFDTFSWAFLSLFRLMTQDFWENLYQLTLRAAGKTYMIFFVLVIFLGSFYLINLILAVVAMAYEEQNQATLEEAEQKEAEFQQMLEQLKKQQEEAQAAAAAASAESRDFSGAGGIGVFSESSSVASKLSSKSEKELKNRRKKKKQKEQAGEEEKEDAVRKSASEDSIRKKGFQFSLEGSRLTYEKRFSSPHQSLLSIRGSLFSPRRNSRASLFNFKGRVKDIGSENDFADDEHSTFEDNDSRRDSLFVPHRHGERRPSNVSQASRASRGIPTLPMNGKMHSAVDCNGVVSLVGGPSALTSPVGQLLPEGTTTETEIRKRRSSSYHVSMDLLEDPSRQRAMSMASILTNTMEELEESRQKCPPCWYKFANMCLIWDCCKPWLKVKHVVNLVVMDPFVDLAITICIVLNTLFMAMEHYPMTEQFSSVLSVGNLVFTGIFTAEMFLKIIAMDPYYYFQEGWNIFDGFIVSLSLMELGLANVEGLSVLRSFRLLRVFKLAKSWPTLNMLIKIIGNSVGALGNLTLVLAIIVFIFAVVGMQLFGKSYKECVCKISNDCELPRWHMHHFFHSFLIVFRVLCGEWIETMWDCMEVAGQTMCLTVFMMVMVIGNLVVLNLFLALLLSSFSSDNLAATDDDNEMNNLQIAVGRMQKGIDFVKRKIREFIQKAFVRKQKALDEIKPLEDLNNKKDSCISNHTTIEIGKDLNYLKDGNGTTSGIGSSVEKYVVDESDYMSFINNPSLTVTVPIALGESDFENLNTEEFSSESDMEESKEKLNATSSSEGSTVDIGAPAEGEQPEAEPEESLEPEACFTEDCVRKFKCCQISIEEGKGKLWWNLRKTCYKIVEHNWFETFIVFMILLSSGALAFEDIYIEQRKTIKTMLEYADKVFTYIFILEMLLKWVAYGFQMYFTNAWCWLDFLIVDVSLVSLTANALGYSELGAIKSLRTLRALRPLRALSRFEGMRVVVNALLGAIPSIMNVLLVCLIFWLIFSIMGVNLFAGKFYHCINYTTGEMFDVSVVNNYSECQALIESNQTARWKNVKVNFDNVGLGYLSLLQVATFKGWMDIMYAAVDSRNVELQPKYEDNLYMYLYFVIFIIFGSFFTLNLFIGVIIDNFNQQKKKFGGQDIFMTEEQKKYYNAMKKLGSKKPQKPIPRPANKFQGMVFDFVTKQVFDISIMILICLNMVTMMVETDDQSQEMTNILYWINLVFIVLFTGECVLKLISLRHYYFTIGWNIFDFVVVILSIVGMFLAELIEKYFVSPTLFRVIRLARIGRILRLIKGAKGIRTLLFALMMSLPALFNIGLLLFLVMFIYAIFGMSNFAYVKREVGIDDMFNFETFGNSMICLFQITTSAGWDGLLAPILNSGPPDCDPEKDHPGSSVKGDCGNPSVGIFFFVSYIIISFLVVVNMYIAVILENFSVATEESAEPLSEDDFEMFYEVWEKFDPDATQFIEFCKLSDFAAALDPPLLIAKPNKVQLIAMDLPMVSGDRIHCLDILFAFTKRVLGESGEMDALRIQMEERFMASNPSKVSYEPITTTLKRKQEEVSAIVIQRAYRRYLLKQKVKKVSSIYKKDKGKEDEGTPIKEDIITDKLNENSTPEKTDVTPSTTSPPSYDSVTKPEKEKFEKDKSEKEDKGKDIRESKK

Molecular target: α-subunit of NaV1.2 neuronal sodium channels (Rattus norvegicus, UniProt P04775)
Test: cell-based
Experimental: Stably transfected HEK 293 cell lines expressing the α-subunit of NaV1.2 neuronal sodium channels from a rat were used. The expression vector pRc/CMV (Invitrogen, San Diego, USA) was used for mammalian transfection. Transfection was performed using calcium phosphate precipitation. Permanent expression was achieved by selection for resistance to the aminoglycoside antibiotic geneticin G418 (Life Technology, Eggenstein, Germany).
The stock solution was then dissolved directly in bath solution. The bath solution contained [mM] NaCl 140, MgCl2 1.0, KCl 4.0, CaCl2 2.0, Hepes 5.0, dextrose 5.0. Patch electrodes contained [mM] CsCl2 130, MgCl2 2.0, EGTA 5.0, Hepes 10. All solutions were adjusted to 290 mosm 1^-1 by the addition of mannitol and to pH 7.4 by the addition ofCsOH.
Standard whole-cell voltage-clamp experiments were performed at 20°C. Each experiment consisted of test recordings with the drug present at only one concentration, and of drug-free control recordings before and after the test. Each cell was exposed to one test concentration only. At least three or five independent experiments were performed at each concentration depending on the active being tested.
For data acquisition and further analysis, a EPC9 digitally-controlled amplifier was used in combination with Pulse and Pulse Fit software (HEKA Electronics, Lambrecht, Germany). The EPC9 provides automatic subtraction of capacitive and leakage currents by means of a prepulse protocol. The data were filtered at 10 kHz and digitized at 20 µs per point. The input resistance of the patch pipettes was 2.0-3.5 MΩ and the capacitances of the cells were 9-15 pF; the residual series resistance (after 50% compensation) was 1.2-2.5 MΩ. Experiments with a rise in series resistance were rejected. To minimize time-dependent shifts in the voltage-dependence of steady-state inactivation, all test experiments were performed within 5 min of patch rupture.
Drug effects on the peak current amplitude were assessed at a hyperpolarized membrane potentials (-100 mV and -150mV), at a holding potential close to the normal resting potential in physiological conditions (-70 mV), and, additionally, at -100 mV in the presence of a fraction of slow inactivated channels. Slow inactivation was induced by long (2.5 s) prepulses to -90, -70, -50, -30 and -10 mV, followed by a short hyperpolarization to allow recovery from fast-inactivation. In our protocol the recovery interval was prolonged to 100 ms (instead of 10 ms originally described) in order to allow sufficient time not only for drug-free, but also for all drug-bound states to recover from fast inactivation. […]

In the case of `CCCCCCCCCCCCCCCC[n+]1ccccc1` [CPC, cetyl pyridinium chloride], the “currents during wash-out, % of control current” value (“currents during wash-out, %” for short) (-70 mV holding potential) is reported as 81 ± 5%, the “currents during wash-out, %” value (-100 mV holding potential) is reported as 78 ± 5% and the “currents during wash-out, %” value (-150 mV holding potential) is reported as 66 ± 7%. For the same molecule, the IC50 (ECR50, half maximum blocking concentration, resting channels, fit to concentration-response plots at -150 mV holding potential, HEK 293, 20°C) was ~300 nM and 220 nM and 200 nM.
